Patent US20250059156A1, “THERAPEUTIC ALKALOID COMPOUNDS” (Sensorium Therapeutics, Inc., priority 2022, published 2025)
For at least one compound, name, drawing or mass did not settle the structure.

Amino acid sequences for entries named in this document (tags omitted). A change or cut given only in a name is not applied to a line headed by its entry. Chains listed by the source or under a name are the forms on record and can include a tag or linker.
UniProt Q07343, other isoform, or with tags, fused parts or gaps: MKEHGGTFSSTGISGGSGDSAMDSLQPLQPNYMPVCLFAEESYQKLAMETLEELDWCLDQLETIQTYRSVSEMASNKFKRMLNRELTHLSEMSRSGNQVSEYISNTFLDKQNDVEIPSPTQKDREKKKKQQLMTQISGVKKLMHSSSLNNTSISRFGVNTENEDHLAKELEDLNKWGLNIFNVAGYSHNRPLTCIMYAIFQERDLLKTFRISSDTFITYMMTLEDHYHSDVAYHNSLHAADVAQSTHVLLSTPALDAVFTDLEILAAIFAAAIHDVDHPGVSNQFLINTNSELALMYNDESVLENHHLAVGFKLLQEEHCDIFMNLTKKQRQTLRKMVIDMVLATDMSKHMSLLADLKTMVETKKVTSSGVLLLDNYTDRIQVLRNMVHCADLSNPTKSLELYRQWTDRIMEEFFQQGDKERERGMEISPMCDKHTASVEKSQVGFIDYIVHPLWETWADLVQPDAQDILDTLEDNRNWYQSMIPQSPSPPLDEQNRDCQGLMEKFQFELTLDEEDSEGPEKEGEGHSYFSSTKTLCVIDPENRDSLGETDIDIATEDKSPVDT
UniProt P27815, other isoform, or with tags, fused parts or gaps: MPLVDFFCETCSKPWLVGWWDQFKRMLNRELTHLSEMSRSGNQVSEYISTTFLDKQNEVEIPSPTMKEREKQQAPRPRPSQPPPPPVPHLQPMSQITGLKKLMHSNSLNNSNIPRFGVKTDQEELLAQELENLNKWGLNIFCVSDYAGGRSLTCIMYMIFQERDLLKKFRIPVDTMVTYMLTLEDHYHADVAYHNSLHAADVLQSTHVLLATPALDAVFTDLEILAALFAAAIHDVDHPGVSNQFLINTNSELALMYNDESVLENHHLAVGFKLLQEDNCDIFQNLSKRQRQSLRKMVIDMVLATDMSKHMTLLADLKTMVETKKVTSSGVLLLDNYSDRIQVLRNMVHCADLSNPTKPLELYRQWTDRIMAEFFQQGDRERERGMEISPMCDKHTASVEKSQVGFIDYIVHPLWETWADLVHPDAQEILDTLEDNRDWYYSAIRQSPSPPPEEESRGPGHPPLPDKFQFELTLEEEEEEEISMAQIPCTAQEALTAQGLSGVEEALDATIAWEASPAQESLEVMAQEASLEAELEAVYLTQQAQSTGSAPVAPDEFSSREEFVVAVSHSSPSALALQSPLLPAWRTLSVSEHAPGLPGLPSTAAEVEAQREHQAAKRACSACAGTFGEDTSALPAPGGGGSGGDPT
UniProt Q08493: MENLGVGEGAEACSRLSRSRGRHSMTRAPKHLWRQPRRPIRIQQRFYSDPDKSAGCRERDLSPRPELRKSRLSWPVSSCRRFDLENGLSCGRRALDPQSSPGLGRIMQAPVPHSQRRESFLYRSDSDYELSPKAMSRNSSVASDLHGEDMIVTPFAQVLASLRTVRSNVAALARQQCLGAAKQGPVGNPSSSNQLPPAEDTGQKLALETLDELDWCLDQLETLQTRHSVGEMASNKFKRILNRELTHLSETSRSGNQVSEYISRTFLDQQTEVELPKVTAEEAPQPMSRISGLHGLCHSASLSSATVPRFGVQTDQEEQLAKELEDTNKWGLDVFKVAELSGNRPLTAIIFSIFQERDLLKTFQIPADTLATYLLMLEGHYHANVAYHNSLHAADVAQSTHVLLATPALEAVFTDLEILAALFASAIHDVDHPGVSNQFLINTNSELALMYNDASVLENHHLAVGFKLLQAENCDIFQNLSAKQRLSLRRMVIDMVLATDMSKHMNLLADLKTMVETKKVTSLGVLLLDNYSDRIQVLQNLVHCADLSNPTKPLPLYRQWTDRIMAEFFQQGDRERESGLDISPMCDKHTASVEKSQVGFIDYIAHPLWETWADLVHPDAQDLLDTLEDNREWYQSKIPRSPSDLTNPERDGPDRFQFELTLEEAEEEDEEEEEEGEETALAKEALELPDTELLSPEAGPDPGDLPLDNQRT

Experiments:
Assay type in all cases: biochemical
Conditions in all cases: ratio from PDE4 IC50 determination
PDE4B2 = PDE4B2 (Homo sapiens (Human), UniProt Q07343); experiment: PDE4 IC50 determination, PDE4B2 selectivity
PDE4A1 = PDE4A1 (Homo sapiens (Human), UniProt P27815); experiment: PDE4 IC50 determination, PDE4A1 selectivity
PDE4C1 = PDE4C1 (Homo sapiens (Human), UniProt Q08493); experiment: PDE4 IC50 determination, PDE4C1 selectivity
PDE4D1 = experiment: PDE4 IC50 determination, PDE4D1 selectivity

## COc1ccc([C@@]23CCN(C)[C@@H]2CC(=O)C[C@@H]3c2ccccc2)cc1OC [Compound 206]
PDE4B2
  PDE4B2 Selectivity B2:A1: 1.0:1
  PDE4B2 Selectivity B2:C1: 2.5:1
  PDE4B2 Selectivity B2:D1: 3.1:1
PDE4A1
  PDE4A1 Selectivity A1:B2: 1.0:1
  PDE4A1 Selectivity A1:C1: 2.6:1
  PDE4A1 Selectivity A1:D2: 3.1:1
PDE4C1
  PDE4C1 Selectivity C1:A1: 0.4:1
  PDE4C1 Selectivity C1:B2: 0.4:1
  PDE4C1 Selectivity C1:D2: 1.2:1
PDE4D1
  PDE4D1 Selectivity D1:A1: 0.3:1
  PDE4D1 Selectivity D1:B2: 0.3:1
  PDE4D1 Selectivity D1:C1: 0.8:1

## COc1ccc([C@]23CCN(C)[C@H]2CC(=O)C[C@H]3c2ccccc2)cc1OC [Compound 207]
PDE4B2
  PDE4B2 Selectivity B2:A1: 1.0:1
  PDE4B2 Selectivity B2:C1: 1.0:1
  PDE4B2 Selectivity B2:D1: 1.0:1
PDE4A1
  PDE4A1 Selectivity A1:B2: 1.0:1
  PDE4A1 Selectivity A1:C1: 1.0:1
  PDE4A1 Selectivity A1:D2: 1.0:1
PDE4C1
  PDE4C1 Selectivity C1:A1: 1.0:1
  PDE4C1 Selectivity C1:B2: 1.0:1
  PDE4C1 Selectivity C1:D2: 1.0:1
PDE4D1
  PDE4D1 Selectivity D1:A1: 1.0:1
  PDE4D1 Selectivity D1:B2: 1.0:1
  PDE4D1 Selectivity D1:C1: 1.0:1

## COc1ccc([C@]23CC[C@@H](n4ccc(C(F)(F)F)n4)C[C@H]2N(C)CC3)cc1OC [Compound 121]
PDE4B2
  PDE4B2 Selectivity B2:A1: 3.2:1
  PDE4B2 Selectivity B2:C1: 3.2:1
  PDE4B2 Selectivity B2:D1: 1.7:1
PDE4A1
  PDE4A1 Selectivity A1:B2: 0.3:1
  PDE4A1 Selectivity A1:C1: 1.0:1
  PDE4A1 Selectivity A1:D2: 0.5:1
PDE4C1
  PDE4C1 Selectivity C1:A1: 1.0:1
  PDE4C1 Selectivity C1:B2: 0.3:1
  PDE4C1 Selectivity C1:D2: 0.5:1
PDE4D1
  PDE4D1 Selectivity D1:A1: 1.9:1
  PDE4D1 Selectivity D1:B2: 0.6:1
  PDE4D1 Selectivity D1:C1: 1.9:1
